Reference: patent US20170008962A1
Results are given in words; binding and its absence hold for the method and conditions named. Some binding calls cover weakened binding; strength is not graded here. For part of these data: Where a sequence is shown, tags or fusion partners need not be part of it.

B1: MICA-Ab20 (anti-MICA antibody ID-1 of Table 1) (antibody, V domains shown)
VH: QVQLQQWGAGLLKPSETLALTCAVSGGSFTDHYWSWIRQAPGKGLEWIGEINHSGVTNYNPSLKSRLTISVDTSKSQFSLRLTSVTAADTALYYCAKTGLYYDDVWGTFRPRGGFDSWGQGTLVTVSS
VL: DIVMTQSPDSLAVSLGERATINCKSSQSILYSSDNKNYLAWYQHKPGQPPKLLFYWASIRESGVPDRFSGGGSGTDFTLTISSLQAEDVAVYYCQQYYSPPCSFGQGTKLEIQ
B2: CM33322 Ab29 (anti-MICA antibody ID-9 of Table 1) (antibody, V domains shown)
VH: EVQLLESGGGLVQPGGSLRLSCAASGFTFSSYGLTWIRQAPGKGLEWVSSISGSGNNTYYADSVKGRFTISRDKVKKTLYLQMDSLTVGDTAVYYCLGVGQGHGIPVIVSS
VL: DIVMTQTPLSSPVTLGQPASISCRSSQSLVHRDGNTYLSWFLQRPGQAPRLLIYRISNRFSGVPDRFSGSGAGTDFTLKISRVEAEDVGVYYCMQATQIPNTFGQGTKLEIK
B3: CM24002 Ab2 (anti-MICA antibody ID-6 of Table 1) (antibody, V domains shown)
VH: QVQLQESGPGLVEPSGTLSLTCTVSGGSISRSNWWSWVRQPPGEGLEWIGEIHHIGRSSYNPSLKSRVTMSVDKSQNQFSLRLTSVTAADTAVYYCAKNGYYAMDVWGQGTTVTVSS
VL: EIVLTQSPGTLSLSPGERATLSCRASQSVSSDFLAWYQQKPGQAPRLLIYATSFRATGISDRFSGSGSGTDFSLTINRLEPEDFAVYYCQHYRSSPPWYTFAQGTKLDMRRTVAAPSV

Columns and labels:
[1] = biological target: T1, MICA antigen (UniGene Hs.130838) with C-terminal BirA tag, mono-biotinylated (human) (UniProt Q29983); test: bead assays: commercial MICA Luminex beads and MICA-coated streptavidin beads by flow cytometry
T1 sequence: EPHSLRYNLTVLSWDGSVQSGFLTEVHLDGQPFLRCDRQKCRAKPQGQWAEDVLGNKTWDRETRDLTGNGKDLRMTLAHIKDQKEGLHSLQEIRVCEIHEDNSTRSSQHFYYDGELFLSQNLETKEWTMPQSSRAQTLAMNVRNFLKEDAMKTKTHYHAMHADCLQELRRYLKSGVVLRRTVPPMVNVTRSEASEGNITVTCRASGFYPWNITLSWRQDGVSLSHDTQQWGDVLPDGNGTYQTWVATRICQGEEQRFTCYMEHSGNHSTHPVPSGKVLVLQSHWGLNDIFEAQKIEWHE

[2] = biological target: T2, recombinant MICA alpha 3 domain, biotinylated (human) (UniProt Q29983); test: cytometric bead assay, biotinylated alpha 3 domain on streptavidin beads, antibody at 10 µg/ml, FITC anti-human IgG
T2 sequence (looked up): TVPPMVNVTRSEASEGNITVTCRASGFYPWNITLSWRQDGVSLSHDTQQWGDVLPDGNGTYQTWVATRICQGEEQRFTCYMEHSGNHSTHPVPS

[3] = biological target: T3, soluble, recombinant MICB with a single BirA biotinylation site (human) (UniProt Q29980); test: cytometric bead assay, biotinylated protein on streptavidin beads, FITC anti-human IgG
T3 sequence (looked up): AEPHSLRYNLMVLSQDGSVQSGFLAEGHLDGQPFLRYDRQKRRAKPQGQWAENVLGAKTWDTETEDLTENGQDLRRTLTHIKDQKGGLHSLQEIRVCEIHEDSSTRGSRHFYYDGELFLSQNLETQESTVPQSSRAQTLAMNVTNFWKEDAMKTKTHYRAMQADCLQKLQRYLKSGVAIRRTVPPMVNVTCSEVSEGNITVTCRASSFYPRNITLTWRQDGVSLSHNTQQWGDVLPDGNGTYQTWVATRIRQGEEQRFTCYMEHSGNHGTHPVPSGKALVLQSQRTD

[4] = biological target: T4, MICA on tumor cells (human) (UniProt Q29983); test: flow cytometry on RPMI 8226, Xg-1, OVCAR3, U937, K028, 1792, 827 and MCF7 cells, directly conjugated antibody
T4 sequence (looked up): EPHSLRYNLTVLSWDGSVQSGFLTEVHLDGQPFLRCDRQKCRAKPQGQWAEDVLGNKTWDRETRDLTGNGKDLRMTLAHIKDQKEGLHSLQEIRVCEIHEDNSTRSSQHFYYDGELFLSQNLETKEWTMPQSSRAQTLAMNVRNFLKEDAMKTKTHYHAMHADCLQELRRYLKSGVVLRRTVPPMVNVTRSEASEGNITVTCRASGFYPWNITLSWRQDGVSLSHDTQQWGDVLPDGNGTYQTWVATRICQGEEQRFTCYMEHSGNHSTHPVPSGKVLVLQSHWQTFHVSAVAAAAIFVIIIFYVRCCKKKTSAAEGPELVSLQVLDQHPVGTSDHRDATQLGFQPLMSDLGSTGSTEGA

[5] = biological target: T4, MICA on tumor cells (human); test: flow cytometry on autologous CD33+CD34+ tumor cells from bone marrow of patient CM24002, antibody at 10 µg/ml

Binder	binding [1]	binding [2]	binding [3]	binding [4]	binding [5]
B1	binds				
B2		binds	binds	binds	
B3				binds	binds
